These are yes or no findings as the source states them, for the method shown. In cells and extracts the contact can be indirect. Some entries that bind do so weakly or less than the wild type.
Molecular target: BK polyomavirus (BKPyV) Large T antigen (BK polyomavirus (Dunlop strain)) (UniProt P03071)
Assay: proximity ligation

Chains of the proteins cited; added tags and fusions are not shown.
UniProt P03071: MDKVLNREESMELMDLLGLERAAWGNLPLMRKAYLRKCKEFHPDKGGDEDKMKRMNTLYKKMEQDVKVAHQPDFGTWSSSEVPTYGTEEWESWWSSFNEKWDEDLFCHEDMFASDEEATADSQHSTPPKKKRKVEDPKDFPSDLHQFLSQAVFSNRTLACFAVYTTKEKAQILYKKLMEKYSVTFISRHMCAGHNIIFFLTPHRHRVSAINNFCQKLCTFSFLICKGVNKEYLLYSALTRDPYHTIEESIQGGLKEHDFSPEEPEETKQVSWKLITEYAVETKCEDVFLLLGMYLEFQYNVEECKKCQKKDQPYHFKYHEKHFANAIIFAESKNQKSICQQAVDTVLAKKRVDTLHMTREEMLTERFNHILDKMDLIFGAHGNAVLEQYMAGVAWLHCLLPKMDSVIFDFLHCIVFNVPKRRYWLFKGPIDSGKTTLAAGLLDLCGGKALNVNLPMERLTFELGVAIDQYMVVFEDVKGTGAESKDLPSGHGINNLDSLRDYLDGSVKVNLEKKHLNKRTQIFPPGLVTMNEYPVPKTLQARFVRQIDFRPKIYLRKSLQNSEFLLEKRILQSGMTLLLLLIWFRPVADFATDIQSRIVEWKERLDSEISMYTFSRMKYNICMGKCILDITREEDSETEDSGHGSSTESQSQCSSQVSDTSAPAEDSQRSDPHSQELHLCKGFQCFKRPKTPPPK
UniProt Q06609: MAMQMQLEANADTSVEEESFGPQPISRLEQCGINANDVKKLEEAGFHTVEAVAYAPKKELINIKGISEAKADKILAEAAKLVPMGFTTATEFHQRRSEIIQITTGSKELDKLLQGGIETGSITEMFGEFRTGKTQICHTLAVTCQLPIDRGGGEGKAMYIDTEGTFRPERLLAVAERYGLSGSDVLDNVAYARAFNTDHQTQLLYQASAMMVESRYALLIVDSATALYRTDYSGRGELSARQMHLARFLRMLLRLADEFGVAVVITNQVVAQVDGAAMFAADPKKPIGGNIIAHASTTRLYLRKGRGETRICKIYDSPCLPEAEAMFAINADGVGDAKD

Substance: Rad51 (from UniProt Q06609 1-339)
- binding: binds

— article doi:10.1101/2021.05.13.443803
